The values below come from the supplement of paper PMC12823440, “Inhibitors supercharge kinase turnover through native proteolytic circuits” (Nature, 2025).

By UniProt entry, the sequences of proteins in these tests, tags left out. Where a name states a change or a piece, a line headed by the entry shows the natural chain unless it says otherwise.
UniProt Q15208: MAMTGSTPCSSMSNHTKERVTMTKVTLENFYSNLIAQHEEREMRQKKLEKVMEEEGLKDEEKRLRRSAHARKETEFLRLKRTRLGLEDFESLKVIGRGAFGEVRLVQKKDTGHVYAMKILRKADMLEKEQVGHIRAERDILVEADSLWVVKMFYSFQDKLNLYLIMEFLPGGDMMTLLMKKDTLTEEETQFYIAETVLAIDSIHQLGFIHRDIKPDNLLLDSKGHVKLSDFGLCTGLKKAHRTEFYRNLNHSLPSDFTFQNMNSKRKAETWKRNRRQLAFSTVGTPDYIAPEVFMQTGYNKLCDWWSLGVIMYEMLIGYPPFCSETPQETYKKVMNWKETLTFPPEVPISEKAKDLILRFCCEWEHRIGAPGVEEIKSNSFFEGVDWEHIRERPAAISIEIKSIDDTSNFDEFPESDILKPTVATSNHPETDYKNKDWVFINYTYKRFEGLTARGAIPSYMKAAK

Structures can show the parent of a compound that is named as a salt. This is one part of the list. Hit calls seldom repeat between salt and free forms of one compound.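 In K562 cells expressing nanoluciferase-fused kinases, luminescence was recorded at 4 h intervals between 2 and 18 h, normalized as percent of control with DMSO at 100% and a positive control at 0%. A significant (2 sigma) signal drop marks a time point as decreased. The authors' rule for a hit is not shown and takes in more than the number of time points.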

The experiment addresses STK38 (UniProt Q15208). Nature of the experiment: number of time points (of 5) at which kinase-Nluc abundance scored as decreased, DMSO-normalised (count); higher = more persistent destabilization. The note with it: K562; 2-18 h.
Turning to `C[C@@H]1COCCN1c1nc(-c2cnc(N)cc2C(F)F)nc(N2[C@H](C)COC[C@@H]2C)n1` (2.5 µM), the “number of time points” value amounted to 0.
As for `O=C(O)c1cc(=O)c2c(OCC(O)COc3cccc4oc(C(=O)O)cc(=O)c34)cccc2o1` [Cromolyn (sodium)] (10 µM), the “number of time points” value is 0.
As for `CCc1ccc(OCC(=O)Nc2ccc(F)c([N+](=O)[O-])c2)cc1` (10 µM), the “number of time points” value is 0.
Consider `CC(C)S(=O)(=O)c1ccc2nccc(Nc3ccc4scnc4c3)c2c1` (10 µM), for which the “number of time points” value worked out at 0.
With `CN1CC[C@@H](c2c(O)cc(O)c3c(=O)cc(-c4ccc(C(F)(F)F)cc4Cl)oc23)[C@@H]1CO` [Voruciclib (hydrochloride)] (10 µM), the “number of time points” value is 0.
Next, `CC(C)=CC(=O)O[C@H]1Cc2cc3ccc(=O)oc3cc2OC1(C)C` [Decursin] (10 µM): 0; `CC(C)C[C@@H](C(=O)Nc1ccn(C[C@@H](O)CO)n1)N1CC(Oc2ccccc2Cl)=CC1=O` [Dorzagliatin] (10 µM): 0; `CC(C)N1CCN(c2ccc(Nc3ncc4cc5n(c4n3)C3(CCCCC3)CNC5=O)nc2)CC1` [Lerociclib (dihydrochloride)] (2 µM): 0.
For `CCCCCCCCCCCCCCCCOP(=O)([O-])OCC[N+](C)(C)C` [Miltefosine] (10 µM) the value was 0.
For `COCCNc1cc(NC(=O)N2CCCc3cc(CN4CCN(C)CC4=O)c(C=O)nc32)ncc1C#N` [Roblitinib] (10 µM), the “number of time points” value came out at 0.
In the case of `Cc1ccc(NC(=O)c2ccc(CN(CCN(C)C)C(=O)c3cccnc3)cc2)cc1Nc1nccc(-c2cccnc2)n1` [PDGFRα kinase inhibitor 1] (10 µM), the “number of time points” value came to 0.
On to `c1ccc(-c2nc(=NCCN3CCOCC3)sn2-c2ccccc2)cc1` [VP3.15 (dihydrobromide)] (10 µM), for which the “number of time points” value is 0.
Take `O=C1NC(=Nc2c(Cl)cccc2Cl)S/C1=C\c1ccc2nccnc2c1` (2.5 µM): the “number of time points” value amounted to 0.
Regarding `Cc1cc(-c2ccnc(Nc3cnn(C)c3)n2)ccc1CNC(=O)N1CC(OC(C)C)C1` (10 µM), the “number of time points” value stood at 0.
For `CN(C)S(=O)(=O)c1ccc2c(c1)/C(=C/c1cc3c([nH]1)CCCC3)C(=O)N2` (2.5 µM), the “number of time points” value is 0.
In the case of `Cc1cnc(NC2CCOCC2)nc1-n1cnc(C(=O)N[C@H](CN)c2cc(F)cc(Cl)c2)c1` (10 µM), the “number of time points” value was 0.
As for `N#CC(c1ccnc(OCc2ccc(CN3CCOCC3)cc2)n1)c1nc2ccccc2s1` (stereo not drawn) [Bentamapimod] (2.5 µM), the “number of time points” value was 0.
Take `Cc1c(-c2ccc(C(N)=O)c3[nH]c4cc(C(C)(C)O)ccc4c23)cccc1-n1cnc2ccccc2c1=O` (2.5 µM): the “number of time points” value amounted to 0.
For the molecule `CN(C)c1nc2c(Br)c(Br)c(Br)c(Br)c2[nH]1` (10 µM), the “number of time points” value came out at 0.
For `Nc1ncnc2c1c(-c1ccc(Oc3ccccc3)cc1)nn2C1CCN(CCOCCOCCOc2ccc3c(c2)CN(C2CCC(=O)NC2=O)C3=O)CC1` (stereo not drawn) (2.5 µM) the value was 0; for `O=[N+]([O-])c1ccc(Nc2nc(N3CCOCC3)nc(N3CCOCC3)n2)cc1` (10 µM), 0; for `C[C@H](Nc1ncnc2[nH]cnc12)c1cc2ccc(F)cc2nc1-c1ccccn1` (10 µM), 0.
On to `CCc1cccc(CC)c1NC(=O)N1Cc2[nH]nc(NC(=O)c3ccc(N4CCN(C)CC4)cc3)c2C1` (2.5 µM), for which the “number of time points” value is 0.
For `CCc1cncnc1N1CCN(Cc2nc3ccc(C(F)(F)F)cc3[nH]2)CC1` (10 µM) the value was 0; for `COc1cc(-c2cn[nH]c2)ccc1C(=O)Nc1ccc2c(c1)CCNCC2` (10 µM), 0; for `Cn1cc2cc(C(F)(F)c3nnc4ccc(-c5cnn(C6CC6)c5)nn34)c(F)cc2n1` [Bozitinib] (10 µM), 0.
For `O=Nc1c2[nH]c3ccccc3nc-2c2ccccc12` [IQ-1S (free acid)] (2.5 µM) the value was 0.
For `CCN(CC)c1cc2oc(=O)c(-c3nc4ccccc4o3)cc2cc1C` (2.5 µM), the “number of time points” value came to 0.
On to `COc1cc(N2CCOCC2)ccc1NC(=O)c1csc(-c2cccnc2)n1` [IRAK inhibitor 6] (10 µM), for which the “number of time points” value was 0.
In the case of `CNc1nc(Nc2cn(C(C)(C)C#N)nc2C)ncc1C(F)(F)F` (10 µM), the “number of time points” value was 0.
For the molecule `COc1nn(C)cc1Nc1nccc(-c2c[nH]c3c(NC(=O)[C@@H](C)N4CCN(C)CC4)cccc23)n1` (10 µM), the “number of time points” value came to 0.
With `N#Cc1ccnc(Nc2cc(C3CCN(C4COC4)CC3)cc(N3CCC(F)(F)C3)n2)c1` (2.5 µM), the “number of time points” value worked out at 0.
For `Cc1cccc2c3c(ccc12)C(=O)C1=C(OCC1C)C3=O` (stereo not drawn) [Dihydroisotanshinone I] (2.5 µM) the value was 0; for `CNc1nc(Nc2ccc(C(=O)N3CCOCC3)cc2OC)ncc1Cl` (2.5 µM), 0.
Next, `CCN(CC)c1ccc2cc(-c3nc4cc(C)ccc4o3)c(=O)oc2c1` (10 µM): 0; `COc1ccccc1C(=O)/C=C/c1ccccc1C(=O)O` (10 µM): 0.
Regarding `CC(=O)N1CCC(c2cc(-c3ccc(NC(=O)c4cccn(-c5ccc(F)cc5)c4=O)cc3F)c3c(N)ncnn23)CC1` (0.5 µM), the “number of time points” value worked out at 0.
As to `O[C@@H]1CO[C@H]2[C@@H]1OC[C@H]2Oc1nc2nc(-c3ccc(-c4ccccc4)cc3)c(Cl)cc2[nH]1` (10 µM), the “number of time points” value stood at 0.
